Drawing on publication PMC8646042, this text covers binding for 2 molecules.

By UniProt entry, the sequences of proteins in these tests, tags left out.
UniProt Q7Z434: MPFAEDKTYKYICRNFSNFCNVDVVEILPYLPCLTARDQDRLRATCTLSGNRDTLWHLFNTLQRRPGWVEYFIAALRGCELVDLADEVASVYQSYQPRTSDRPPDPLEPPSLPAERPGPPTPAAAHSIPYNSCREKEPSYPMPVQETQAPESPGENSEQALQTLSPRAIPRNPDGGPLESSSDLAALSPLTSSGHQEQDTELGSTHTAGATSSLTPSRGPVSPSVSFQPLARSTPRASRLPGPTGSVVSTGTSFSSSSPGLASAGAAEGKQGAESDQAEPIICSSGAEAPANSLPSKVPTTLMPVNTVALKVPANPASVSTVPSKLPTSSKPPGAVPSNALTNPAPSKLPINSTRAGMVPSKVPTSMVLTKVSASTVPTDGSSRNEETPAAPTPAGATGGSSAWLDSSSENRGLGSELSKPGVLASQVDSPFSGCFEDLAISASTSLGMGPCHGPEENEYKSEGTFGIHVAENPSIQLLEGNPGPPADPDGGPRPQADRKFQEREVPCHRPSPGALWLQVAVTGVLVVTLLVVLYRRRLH

No constants are given. Whether binding was seen depends on the method and setting. In cells and extracts the contact can be indirect. Some entries that bind do so weakly or less than the wild type. Where a sequence is shown, tags or fusion partners need not be part of it.

One assay addresses T1, HA-labeled RIG-I (human) (UniProt O95786).
T1 sequence: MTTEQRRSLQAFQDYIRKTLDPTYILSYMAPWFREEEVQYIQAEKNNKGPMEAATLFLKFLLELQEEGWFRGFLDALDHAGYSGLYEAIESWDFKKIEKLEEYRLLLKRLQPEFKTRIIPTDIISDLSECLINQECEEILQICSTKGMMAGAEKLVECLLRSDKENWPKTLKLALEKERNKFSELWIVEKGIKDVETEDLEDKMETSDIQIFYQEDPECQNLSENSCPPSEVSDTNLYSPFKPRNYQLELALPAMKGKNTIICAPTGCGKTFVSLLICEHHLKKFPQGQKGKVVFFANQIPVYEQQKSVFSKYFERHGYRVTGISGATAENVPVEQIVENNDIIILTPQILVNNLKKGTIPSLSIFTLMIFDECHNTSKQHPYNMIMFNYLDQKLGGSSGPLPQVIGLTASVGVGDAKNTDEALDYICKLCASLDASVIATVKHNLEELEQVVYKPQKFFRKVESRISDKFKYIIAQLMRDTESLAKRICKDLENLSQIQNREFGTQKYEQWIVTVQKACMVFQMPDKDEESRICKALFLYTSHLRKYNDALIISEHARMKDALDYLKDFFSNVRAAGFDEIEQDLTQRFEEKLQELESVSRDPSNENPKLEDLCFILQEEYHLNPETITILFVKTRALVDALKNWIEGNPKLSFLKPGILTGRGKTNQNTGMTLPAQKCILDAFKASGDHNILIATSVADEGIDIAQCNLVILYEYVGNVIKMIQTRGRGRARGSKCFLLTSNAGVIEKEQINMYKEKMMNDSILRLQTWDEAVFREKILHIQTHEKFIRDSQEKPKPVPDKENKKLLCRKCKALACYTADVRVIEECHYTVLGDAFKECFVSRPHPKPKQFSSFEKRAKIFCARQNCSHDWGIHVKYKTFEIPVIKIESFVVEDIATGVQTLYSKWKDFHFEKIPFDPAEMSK
Put plainly: co-IP; 293T cells co-transfected, left uninfected or infected with SeV; lysis in 20 mM Tris pH 7.5, 150 mM NaCl, 1% Triton, 1 mM EDTA; immunoprecipitation with anti-HA, immunoblot with anti-Flag; with or without myc-N4BP3 for MAVS with TRAF2 or TRAF3.

In assay [1] the target is HA-tagged MAVS (mitochondrial antiviral signaling protein) (human) (UniProt Q7Z434). Described as above.
For the next assay, the target named is Flag-tagged MAVS (human) (UniProt Q7Z434). The assay can be described thus: co-IP; 293T cells transfected for 24 h with Flag-MAVS with or without tagged N4BP3 and Myc-NEDD4; co-immunoprecipitation and immunoblotting with the indicated antibodies (not given).

B1: Flag-tagged N4BP3 (NEDD4 binding protein 3) (protein, UniProt O15049 1-544)
chain: MATAPGPAGIAMGSVGSLLERQDFSPEELRAALAGSRGSRQPDGLLRKGLGQREFLSYLHLPKKDSKSTKNTKRAPRNEPADYATLYYREHSRAGDFSKTSLPERGRFDKCRIRPSVFKPTAGNGKGFLSMQSLASHKGQKLWRSNGSLHTLACHPPLSPGPRASQARAQLLHALSLDEGGPEPEPSLSDSSSGGSFGRSPGTGPSPFSSSLGHLNHLGGSLDRASQGPKEAGPPAVLSCLPEPPPPYEFSCSSAEEMGAVLPETCEELKRGLGDEDGSNPFTQVLEERQRLWLAELKRLYVERLHEVTQKAERSERNLQLQLFMAQQEQRRLRKELRAQQGLAPEPRAPGTLPEADPSARPEEEARWEVCQKTAEISLLKQQLREAQAELAQKLAEIFSLKTQLRGSRAQAQAQDAELVRLREAVRSLQEQAPREEAPGSCETDDCKSRGLLGEAGGSEARDSAEQLRAELLQERLRGQEQALRFEQERRTWQEEKERVLRYQREIQGGYMDMYRRNQALEQELRALREPPTPWSPRLESSKI
In the case of B1, the binding result (in the assay with HA-labeled RIG-I (human); in assay [1]) was “binds” each time.

B2: Myc-tagged or HA-tagged N4BP3 (Figure 4D) (protein, UniProt O15049 1-544)
chain: B1 chain
B2: the binding result with Flag-tagged MAVS (human) is “binds”.
